From article PMC7819943, “Rice protein-binding microarrays: a tool to detect cis-acting elements near promoter regions in rice”
Some of the results follow.

Protein sequences, listed by entry. Tags and fused reporters are not part of them.
UniProt Q0JBA9, entry or part of it: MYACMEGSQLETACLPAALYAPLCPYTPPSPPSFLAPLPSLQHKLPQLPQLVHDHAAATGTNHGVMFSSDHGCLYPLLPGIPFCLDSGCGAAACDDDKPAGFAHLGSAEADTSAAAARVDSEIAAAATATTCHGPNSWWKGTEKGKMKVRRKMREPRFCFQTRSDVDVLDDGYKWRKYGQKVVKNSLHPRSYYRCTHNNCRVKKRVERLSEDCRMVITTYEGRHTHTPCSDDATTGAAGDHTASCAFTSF

The sequences below were run against OsWRKY34 (Oryza sativa, UniProt Q0JBA9 1-250) (assay: protein-binding microarray (RPBM); PBS, 2% BSA, 51.3 ng/ul salmon testes DNA, 50 uM zinc acetate, 200 nM TF, 25 C, 1 h; high values mean tight binding). Settings: protein: recombinant; tags: N-terminal polyhistidine and DsRed monomer fusion (pET32a); label: CyDye5-dUTP incorporated in the synthesized complementary strand; 3' TTTTT single-stranded linker to array surface; dsDNA, one strand shown.
Method in brief: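 For the binding signal, per-feature fluorescence intensity was read in arbitrary units on an Axon 4000B scanner. Before scanning, a 2% BSA-blocked custom Agilent array made double-stranded with Cy5-dUTP was washed after 1 h at 25 °C with 200 nM protein and 50 µM zinc acetate. The proteins were Ni–NTA-purified transcription factors with N-terminal polyhistidine and DsRed fusions, expressed in E. coli BL21-CodonPlus.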
In the case of “CCCTTTTTCCACTTCTTTTTAAACTTTTTCTCACCTTTGACGGAGTCACCTAGTGCAG”, the binding signal is reported as 9590 fluorescence intensity (a.u.). For “ACACGCACGCGCCACACGCCGCCGCTCTCTGTCTCTGTCTCGGAGTCACCTAGTGCAG”, the binding signal was 9900 fluorescence intensity (a.u.). In the case of “GTTGCTACAGCATGTGAAATGTGATATGTTATGCTGCTGTCGGAGTCACCTAGTGCAG”, the binding signal is reported as 9030 fluorescence intensity (a.u.). “CGCTACCGGGTTGACTTTTTCCTATCCGTTTCTGGTCCGGCGGAGTCACCTAGTGCAG” was tested, and the binding signal was 22800 fluorescence intensity (a.u.). In the case of “CAGCAGCATGACCCGTTCCTGGCCGCCTACGTGGCGTGCACGGAGTCACCTAGTGCAG”, the binding signal is reported as 9620 fluorescence intensity (a.u.). “CAAACCGGATGTAAGGCGATTGATGTTCGAGGTGTTTGACCGGAGTCACCTAGTGCAG” was tested, and the binding signal was 10700 fluorescence intensity (a.u.). For “CGCGAACCCAACCTTGCTCGATCGTACGTGTTGCCGTAGCCGGAGTCACCTAGTGCAG”, the binding signal was 9330 fluorescence intensity (a.u.). For “TCTCGACTCTGGACCTCTCCTCTCCACGCCGACCGCCATGCGGAGTCACCTAGTGCAG”, the binding signal was 8500 fluorescence intensity (a.u.). For “TCCGCCGTCATCGCATCCGTCGTCTCACCGCCACCGATTCCGGAGTCACCTAGTGCAG”, the binding signal was 10100 fluorescence intensity (a.u.). In the case of “GCTCATCACGGGCCAAGCCGCTGGTTTTTCTTCCCATTTTCGGAGTCACCTAGTGCAG”, the binding signal is reported as 8080 fluorescence intensity (a.u.). “TATGGTTGGGGATGATTTTGTATCTTAGATGACAAGTTGACGGAGTCACCTAGTGCAG” was tested, and the binding signal was 11700 fluorescence intensity (a.u.). In the case of “TCTACTGACATCGTTTAATTTTCTATTCTCGATTTTTTGACGGAGTCACCTAGTGCAG”, the binding signal is reported as 8960 fluorescence intensity (a.u.). For “TCTACCAACCCACCCGTGCTCTCTCCTGCCGTGCTCGTCGCGGAGTCACCTAGTGCAG”, the binding signal was 11500 fluorescence intensity (a.u.). “ATCATGACCACAACTGCTGCTGCTGCTACCATCCAAATGTCGGAGTCACCTAGTGCAG” was tested, and the binding signal was 10200 fluorescence intensity (a.u.). In the case of “GATTGTTTTATCGTTCATAGTACTTTAAGTGTAATTTATACGGAGTCACCTAGTGCAG”, the binding signal is reported as 10300 fluorescence intensity (a.u.). In the case of “TGAACCTTGGAAAATCACATCGTTGTCTGCTTTCTCATCACGGAGTCACCTAGTGCAG”, the binding signal is reported as 8070 fluorescence intensity (a.u.). In the case of “TTTTCTGGGCACATGTTCGTTGTTGTTATCGTCACGTATCCGGAGTCACCTAGTGCAG”, the binding signal is reported as 11500 fluorescence intensity (a.u.). With “CAGCAAGAGCTATAACATCCATCCATCCATCTATTCGCTTCGGAGTCACCTAGTGCAG” the binding signal was 9610 fluorescence intensity (a.u.). “CAACTATCCCATAACCACTGTAGCAGGTCAAATTCAATTACGGAGTCACCTAGTGCAG” was tested, and the binding signal was 10100 fluorescence intensity (a.u.). With “CTCTTGACCAGCCGAGCGCACCGTCATCAGGCTACATCTCCGGAGTCACCTAGTGCAG” the binding signal was 8280 fluorescence intensity (a.u.). “GATTCGTAAATTGAAGTGTGTCGTAAGTTCTGTTGAGTTCCGGAGTCACCTAGTGCAG” was tested, and the binding signal was 8580 fluorescence intensity (a.u.). With “CGTCGCTTGCCCCGACGACCACCGTGTCCGCGCTCGCCTTCGGAGTCACCTAGTGCAG” the binding signal was 8530 fluorescence intensity (a.u.). “AGTAGTATCATCTCTCTCTGTCTGTATCTTCACCTGTATCCGGAGTCACCTAGTGCAG” was tested, and the binding signal was 8150 fluorescence intensity (a.u.). In the case of “TAATTAACTCACGACGACTCGTTCATTATTGCCGTTTACTCGGAGTCACCTAGTGCAG”, the binding signal is reported as 8320 fluorescence intensity (a.u.). In the case of “TACGTCGTATTATATCCTGAACATCGATCGCTATTGACGACGGAGTCACCTAGTGCAG”, the binding signal is reported as 10100 fluorescence intensity (a.u.). For “AACCTTGAAATTTGAAGTATAACACTGCCATCATTTGCTTCGGAGTCACCTAGTGCAG”, the binding signal was 8960 fluorescence intensity (a.u.). With “CGTTAGGTTTTGAAGCTGGGAGGGGCGGAGGGCAGCGATTCGGAGTCACCTAGTGCAG” the binding signal was 12500 fluorescence intensity (a.u.). For “GTTGCTTTTGCTGGAGTAGTACTTCTATTTATCTTCAAACCGGAGTCACCTAGTGCAG”, the binding signal was 9100 fluorescence intensity (a.u.). In the case of “GATATATTCCCTTGCAACTAGGGGTGAAAATGGGGCGGGTCGGAGTCACCTAGTGCAG”, the binding signal is reported as 12600 fluorescence intensity (a.u.). With “TCGTCGTTCTTGGCGCCACCACATCGCGGGAGATGAGCCACGGAGTCACCTAGTGCAG” the binding signal was 8210 fluorescence intensity (a.u.). In the case of “CCCTTATTCGTTTGTTTTCCATAGTACCTACATTTTTTCACGGAGTCACCTAGTGCAG”, the binding signal is reported as 12200 fluorescence intensity (a.u.). In the case of “CCGGCGACCTCCCCACCCACCGCCCGGCCCGCCCAGCCTGCGGAGTCACCTAGTGCAG”, the binding signal is reported as 8030 fluorescence intensity (a.u.). In the case of “ATCTCCGCCCGGTCGCGCCGCCGGTGGGGTGGGGAATTCGCGGAGTCACCTAGTGCAG”, the binding signal is reported as 14900 fluorescence intensity (a.u.). In the case of “TATGTCACATTTTCACTTTCTGTACTATGTAATACTATATCGGAGTCACCTAGTGCAG”, the binding signal is reported as 10500 fluorescence intensity (a.u.). For “GAGGACCTCTCTACTCTTCACCTCGCCGGTCAAGCGATTCCGGAGTCACCTAGTGCAG”, the binding signal was 10500 fluorescence intensity (a.u.). “AATTCCAGCCGAATTCTCCATGTCTTCTATTTCACCATACCGGAGTCACCTAGTGCAG” was tested, and the binding signal was 9560 fluorescence intensity (a.u.). For “AACTTGCATGCTACCTTGAAACGATCAGAGTCCTAATTGCCGGAGTCACCTAGTGCAG”, the binding signal was 8150 fluorescence intensity (a.u.). In the case of “TACTTAATCTGTTGTTATCCAGCTATCTTACACGTTATTTCGGAGTCACCTAGTGCAG”, the binding signal is reported as 9510 fluorescence intensity (a.u.). For “AGGAGCGCATATTACTTTTGAATTTGAAAGTTTTTTTTCCCGGAGTCACCTAGTGCAG”, the binding signal was 8500 fluorescence intensity (a.u.). With “GTACTCTCCATCCGCCGCCGCCGCTTGGTACTAGATTTGTCGGAGTCACCTAGTGCAG” the binding signal was 12700 fluorescence intensity (a.u.). “CCAAATCTTACCCTTTCACTAGCTCTCTCTGTTCTCATCCCGGAGTCACCTAGTGCAG” was tested, and the binding signal was 11800 fluorescence intensity (a.u.). With “TGTTGGGTTGGGTTGGGTTGGGTTGGGTCCGTCCGATGAACGGAGTCACCTAGTGCAG” the binding signal was 24200 fluorescence intensity (a.u.).
